The target of test [1] is T1, CP2b, endogenous human (human (endogenous in MDA-MB-231)) (UniProt Q9NZI7).
T1 sequence: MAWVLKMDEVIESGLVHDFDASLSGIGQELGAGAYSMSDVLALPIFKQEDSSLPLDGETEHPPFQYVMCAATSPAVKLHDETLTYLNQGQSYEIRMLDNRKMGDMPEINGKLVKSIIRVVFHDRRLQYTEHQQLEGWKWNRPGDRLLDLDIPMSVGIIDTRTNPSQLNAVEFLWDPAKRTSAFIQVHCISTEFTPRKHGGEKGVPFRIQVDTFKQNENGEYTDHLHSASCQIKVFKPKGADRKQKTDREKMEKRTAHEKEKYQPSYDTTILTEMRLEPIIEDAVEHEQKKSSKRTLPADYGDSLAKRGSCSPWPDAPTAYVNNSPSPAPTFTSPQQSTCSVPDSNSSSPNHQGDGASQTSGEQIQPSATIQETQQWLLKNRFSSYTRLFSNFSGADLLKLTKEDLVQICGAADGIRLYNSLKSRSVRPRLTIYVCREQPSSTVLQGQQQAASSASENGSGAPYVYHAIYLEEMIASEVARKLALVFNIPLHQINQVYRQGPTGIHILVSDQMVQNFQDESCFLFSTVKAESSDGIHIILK
Put plainly: cross-linking + co-IP; DSP XL-WB: nuclear extracts of MDA-MB-231 cells, Benzonase, 2 mM DSP 30 min at room temperature, IP with CP2c, CP2b or PIAS1 antibodies, sequential Western blot with and without DTT.

Protein sequences, listed by entry. Tags and fused reporters are not part of them.
UniProt O75925: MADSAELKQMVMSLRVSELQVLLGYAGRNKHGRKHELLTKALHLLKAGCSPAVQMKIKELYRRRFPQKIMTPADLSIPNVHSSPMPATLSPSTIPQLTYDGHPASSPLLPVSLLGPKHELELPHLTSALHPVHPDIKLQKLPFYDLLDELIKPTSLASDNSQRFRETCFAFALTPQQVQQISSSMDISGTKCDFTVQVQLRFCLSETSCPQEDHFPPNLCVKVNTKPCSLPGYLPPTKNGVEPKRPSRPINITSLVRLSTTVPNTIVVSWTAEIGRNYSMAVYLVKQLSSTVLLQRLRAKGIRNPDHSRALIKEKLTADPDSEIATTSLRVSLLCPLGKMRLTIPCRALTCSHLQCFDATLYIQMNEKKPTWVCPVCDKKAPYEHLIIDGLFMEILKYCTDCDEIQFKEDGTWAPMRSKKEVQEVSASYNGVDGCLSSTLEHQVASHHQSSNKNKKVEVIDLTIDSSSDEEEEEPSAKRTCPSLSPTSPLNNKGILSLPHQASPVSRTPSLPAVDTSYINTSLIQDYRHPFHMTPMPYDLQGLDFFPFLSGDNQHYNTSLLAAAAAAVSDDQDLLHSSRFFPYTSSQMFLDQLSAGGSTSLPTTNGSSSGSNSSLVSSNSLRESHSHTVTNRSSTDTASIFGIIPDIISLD

Test [2] concerns the target T2, CP2c (TFCP2), endogenous human (human (endogenous in MDA-MB-231)) (UniProt Q12800).
T2 sequence: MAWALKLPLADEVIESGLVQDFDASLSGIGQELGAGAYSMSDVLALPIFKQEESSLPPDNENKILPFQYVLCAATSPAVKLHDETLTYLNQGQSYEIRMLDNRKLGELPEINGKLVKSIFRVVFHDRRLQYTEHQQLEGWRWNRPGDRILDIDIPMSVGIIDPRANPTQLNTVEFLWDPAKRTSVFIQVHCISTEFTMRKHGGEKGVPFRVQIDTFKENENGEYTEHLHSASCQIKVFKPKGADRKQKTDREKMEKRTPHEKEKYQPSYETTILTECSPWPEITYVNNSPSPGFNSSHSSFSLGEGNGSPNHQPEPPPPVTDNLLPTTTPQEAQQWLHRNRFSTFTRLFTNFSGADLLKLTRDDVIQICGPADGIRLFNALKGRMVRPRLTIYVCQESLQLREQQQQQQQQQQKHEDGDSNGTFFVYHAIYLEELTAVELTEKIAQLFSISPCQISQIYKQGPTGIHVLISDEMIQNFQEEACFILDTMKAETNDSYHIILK
The test is described as above.

The target of test [3] is T2, CP2c (TFCP2), endogenous human (human (endogenous in MDA-MB-231)). Put plainly: cross-linking + co-IP; DSP XL-WB: cytosolic extracts of MDA-MB-231 cells, Benzonase, 2 mM DSP 30 min at room temperature, IP with CP2c, CP2b or PIAS1 antibodies, sequential Western blot with and without DTT.
The target is the same in test [4]. As to the kind of experiment: cross-linking + pull-down; biotin-labelled double-stranded DNA probes (Hba-a2 promoter, Gata1 enhancer; wild type and mutants) cross-linked with nuclear lysate by 2 mM DSP 30 min at room temperature, pulled down on Streptavidin-Sepharose, Western blot with and without DTT; the complex is held by the DNA that CP2c binds.
Test [5] has as its target PIAS1, endogenous human (human (endogenous in MDA-MB-231)) (UniProt O75925). As to the kind of experiment: cross-linking + co-IP; DSP XL-WB: nuclear extracts of MDA-MB-231 cells, Benzonase, 2 mM DSP 30 min at room temperature, IP with CP2c, CP2b or PIAS1 antibodies, sequential Western blot with and without DTT. (In general: A western blot detects proteins with antibodies after separation by electrophoresis.)

In test [6] the target is T3, CP2c (Tfcp2), endogenous mouse (mouse (endogenous in MEL)) (UniProt Q9ERA0).
T3 sequence: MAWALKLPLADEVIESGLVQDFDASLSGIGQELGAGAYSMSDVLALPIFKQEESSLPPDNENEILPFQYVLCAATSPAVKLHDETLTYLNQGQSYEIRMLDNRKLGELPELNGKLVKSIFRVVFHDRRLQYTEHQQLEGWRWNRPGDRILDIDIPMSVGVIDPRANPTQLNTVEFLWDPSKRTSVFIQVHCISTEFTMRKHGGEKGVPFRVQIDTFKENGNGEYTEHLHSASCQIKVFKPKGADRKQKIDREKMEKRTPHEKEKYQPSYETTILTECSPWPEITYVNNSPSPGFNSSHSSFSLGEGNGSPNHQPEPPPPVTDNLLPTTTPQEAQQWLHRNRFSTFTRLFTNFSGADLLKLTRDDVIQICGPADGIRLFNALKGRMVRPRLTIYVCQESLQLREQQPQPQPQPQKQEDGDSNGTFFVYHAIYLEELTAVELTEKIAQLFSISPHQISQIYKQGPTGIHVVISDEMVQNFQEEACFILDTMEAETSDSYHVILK
Put plainly: cross-linking + co-IP; DSP XL-WB: cytosolic extracts of uninduced (d0) MEL cells only, Benzonase, 2 mM DSP 30 min at room temperature, IP, sequential Western blot.

Test [7] deals with T3, CP2c (Tfcp2), endogenous mouse (mouse (endogenous in MEL)). Put plainly: cross-linking + co-IP; DSP XL-WB: cytosolic extracts of MEL cells, uninduced (d0) and HMBA-induced (d3), Benzonase, 2 mM DSP 30 min at room temperature, IP, sequential Western blot with and without DTT.
The next test has as its target T4, Flag-CP2c (UniProt Q9ERA0).
T4 sequence: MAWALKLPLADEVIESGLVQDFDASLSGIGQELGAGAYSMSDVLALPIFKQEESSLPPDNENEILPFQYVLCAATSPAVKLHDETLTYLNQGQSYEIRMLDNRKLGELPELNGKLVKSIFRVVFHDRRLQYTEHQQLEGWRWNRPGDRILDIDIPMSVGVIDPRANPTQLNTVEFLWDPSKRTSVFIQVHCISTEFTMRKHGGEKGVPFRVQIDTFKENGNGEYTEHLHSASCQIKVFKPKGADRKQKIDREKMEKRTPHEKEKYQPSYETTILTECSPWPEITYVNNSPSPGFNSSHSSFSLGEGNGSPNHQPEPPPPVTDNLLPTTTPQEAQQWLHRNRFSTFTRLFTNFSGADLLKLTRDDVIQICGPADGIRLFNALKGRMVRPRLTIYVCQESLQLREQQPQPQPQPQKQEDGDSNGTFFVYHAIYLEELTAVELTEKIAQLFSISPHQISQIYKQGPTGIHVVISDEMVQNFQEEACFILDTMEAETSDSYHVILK
Put plainly: cross-linking + co-IP; DSP XL-WB: cytosolic extracts of 293T cells overexpressing Flag-CP2c, EGFP-CP2b and Flag-PIAS1, with or without CP2a; 2 mM DSP, IP, sequential Western blot.

No constants are given. Whether binding was seen depends on the method and setting. Binding seen in cells or lysates may run through a third protein. Some results given as binding are weak or reduced against the parent protein; the word gives no strength. For some assays here: Where a sequence is shown, tags or fusion partners need not be part of it.

Consider “PIAS1, endogenous human (from UniProt O75925 1-651)”, for which the binding result in test [1], in test [2], in test [3] and in test [4] was “binds” each time.

B1: CP2c (TFCP2), endogenous human (natural protein, human (endogenous in MDA-MB-231), UniProt Q12800-1 1-502, looked up)
chain: MAWALKLPLADEVIESGLVQDFDASLSGIGQELGAGAYSMSDVLALPIFKQEESSLPPDNENKILPFQYVLCAATSPAVKLHDETLTYLNQGQSYEIRMLDNRKLGELPEINGKLVKSIFRVVFHDRRLQYTEHQQLEGWRWNRPGDRILDIDIPMSVGIIDPRANPTQLNTVEFLWDPAKRTSVFIQVHCISTEFTMRKHGGEKGVPFRVQIDTFKENENGEYTEHLHSASCQIKVFKPKGADRKQKTDREKMEKRTPHEKEKYQPSYETTILTECSPWPEITYVNNSPSPGFNSSHSSFSLGEGNGSPNHQPEPPPPVTDNLLPTTTPQEAQQWLHRNRFSTFTRLFTNFSGADLLKLTRDDVIQICGPADGIRLFNALKGRMVRPRLTIYVCQESLQLREQQQQQQQQQQKHEDGDSNGTFFVYHAIYLEELTAVELTEKIAQLFSISPCQISQIYKQGPTGIHVLISDEMIQNFQEEACFILDTMKAETNDSYHIILK
notes: transcription factor CP2c (TFCP2, LBP-1c), endogenous in the human breast cancer line MDA-MB-231; both are human cells; also called α-CP2; LSF; source: endogenous, MDA-MB-231 nuclear and cytosolic lysate
Regarding B1, the binding result in test [1], in test [5] and in test [3] was “binds” throughout.

B2: CP2b, endogenous human (protein, UniProt Q9NZI7-1 1-540)
chain: MAWVLKMDEVIESGLVHDFDASLSGIGQELGAGAYSMSDVLALPIFKQEDSSLPLDGETEHPPFQYVMCAATSPAVKLHDETLTYLNQGQSYEIRMLDNRKMGDMPEINGKLVKSIIRVVFHDRRLQYTEHQQLEGWKWNRPGDRLLDLDIPMSVGIIDTRTNPSQLNAVEFLWDPAKRTSAFIQVHCISTEFTPRKHGGEKGVPFRIQVDTFKQNENGEYTDHLHSASCQIKVFKPKGADRKQKTDREKMEKRTAHEKEKYQPSYDTTILTEMRLEPIIEDAVEHEQKKSSKRTLPADYGDSLAKRGSCSPWPDAPTAYVNNSPSPAPTFTSPQQSTCSVPDSNSSSPNHQGDGASQTSGEQIQPSATIQETQQWLLKNRFSSYTRLFSNFSGADLLKLTKEDLVQICGAADGIRLYNSLKSRSVRPRLTIYVCREQPSSTVLQGQQQAASSASENGSGAPYVYHAIYLEEMIASEVARKLALVFNIPLHQINQVYRQGPTGIHILVSDQMVQNFQDESCFLFSTVKAESSDGIHIILK
As to B2, the binding entry in test [2], in test [5], in test [3] and in test [4] was “binds” throughout.

B3: CP2a, endogenous mouse (protein, UniProt Q811S7-2 1-504)
chain: MAWVLSMDEVIESGLVHDFDSSLSGIGQELGAGAYSMSDVLALPIFKQEDSSLSLEDEAKHPPFQYVMCAATSPAVKLHDETLTYLNQGQSYEIRMLDNRKMGDMPELSGKLVKSIIRVVFHDRRLQYTEHQQLEGWKWNRPGDRLLDLDIPMSVGIIDTRTNPSQLNAVEFLWDPAKRTSAFIQVHCISTEFTPRKHGGEKGVPFRIQVDTFKQNENGEYTDHLHSASCQIKVFKPKGADRKQKNDREKMEKRTAHEKEKYQPSYDTTILTECSPWPDTPTAYVNNSPSPAPTFTSSQPSTCSVPDSNSSSPNHQGDGAAQASGEQIQPSATTQETQQWLLKNRFSSYTRLFSNFSGADLLKLTKEDLVQICGAADGIRLYNSLKSRSVRPRLTIYVCQEQPSSTALQGQPQAAGSGGESGGGTPSVYHAIYLEEMVASEVARKLASVFNIPFHQINQVYRQGPTGIHILVSDQMVQNFQDETCFLFSTVKAENNDGIHIILK
With B3, the binding result in test [6] is “no binding (condition: uninduced (d0) MEL cells)”; in test [7] it was “binds”.

B4: CP2a, ectopically overexpressed (protein, UniProt Q811S7-2 1-504)
chain: MAWVLSMDEVIESGLVHDFDSSLSGIGQELGAGAYSMSDVLALPIFKQEDSSLSLEDEAKHPPFQYVMCAATSPAVKLHDETLTYLNQGQSYEIRMLDNRKMGDMPELSGKLVKSIIRVVFHDRRLQYTEHQQLEGWKWNRPGDRLLDLDIPMSVGIIDTRTNPSQLNAVEFLWDPAKRTSAFIQVHCISTEFTPRKHGGEKGVPFRIQVDTFKQNENGEYTDHLHSASCQIKVFKPKGADRKQKNDREKMEKRTAHEKEKYQPSYDTTILTECSPWPDTPTAYVNNSPSPAPTFTSSQPSTCSVPDSNSSSPNHQGDGAAQASGEQIQPSATTQETQQWLLKNRFSSYTRLFSNFSGADLLKLTKEDLVQICGAADGIRLYNSLKSRSVRPRLTIYVCQEQPSSTALQGQPQAAGSGGESGGGTPSVYHAIYLEEMVASEVARKLASVFNIPFHQINQVYRQGPTGIHILVSDQMVQNFQDETCFLFSTVKAENNDGIHIILK
As to B4, the binding entry with Flag-CP2c is reported as “binds”.

The values are drawn from paper PMC9223585, “Structural and Functional Insights into CP2c Transcription Factor Complexes” (International Journal of Molecular Sciences, 2022).
